Measured values published in paper PMC6837540.
These are yes or no findings as the source states them, for the method shown. Binding seen in cells or lysates may run through a third protein. Some binding calls cover weakened binding; strength is not graded here.

The chains behind the UniProt entries cited, without tags or fusion partners.
UniProt Q9UF56: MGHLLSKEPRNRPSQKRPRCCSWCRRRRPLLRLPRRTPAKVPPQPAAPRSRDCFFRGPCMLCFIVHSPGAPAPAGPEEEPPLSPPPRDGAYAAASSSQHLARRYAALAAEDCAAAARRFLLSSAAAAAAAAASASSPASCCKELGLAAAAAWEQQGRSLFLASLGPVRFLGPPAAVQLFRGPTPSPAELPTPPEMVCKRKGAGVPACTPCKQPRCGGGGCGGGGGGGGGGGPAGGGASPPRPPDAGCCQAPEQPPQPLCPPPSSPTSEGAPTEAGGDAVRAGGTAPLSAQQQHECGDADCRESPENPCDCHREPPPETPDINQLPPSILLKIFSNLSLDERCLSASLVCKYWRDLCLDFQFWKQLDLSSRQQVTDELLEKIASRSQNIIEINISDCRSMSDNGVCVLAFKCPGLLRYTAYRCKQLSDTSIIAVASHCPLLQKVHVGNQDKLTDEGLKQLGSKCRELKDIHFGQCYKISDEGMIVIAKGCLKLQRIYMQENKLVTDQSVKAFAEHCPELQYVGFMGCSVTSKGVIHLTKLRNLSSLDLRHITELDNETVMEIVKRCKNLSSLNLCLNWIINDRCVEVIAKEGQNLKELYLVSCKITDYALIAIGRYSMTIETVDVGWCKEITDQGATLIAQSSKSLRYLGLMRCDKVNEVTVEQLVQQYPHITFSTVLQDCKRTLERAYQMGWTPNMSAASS
UniProt P63208: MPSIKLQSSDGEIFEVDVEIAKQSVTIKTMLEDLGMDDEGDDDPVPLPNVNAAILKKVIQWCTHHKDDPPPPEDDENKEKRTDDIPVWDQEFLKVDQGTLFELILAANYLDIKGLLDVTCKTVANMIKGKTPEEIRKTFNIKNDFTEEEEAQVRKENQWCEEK

Molecular target: FLAG-Fbxl17 (UniProt Q9UF56)
Assay: co-IP; HEK293T transfected with Skp1, Cul1, Myc-Rbx1 and FLAG-Fbxl17; lysis in 25 mM Tris-HCl pH 7.5, 225 mM KCl, 1% NP-40; Anti-FLAG M2 Affinity Gel 5 hours at 4°C, eluted with FLAG peptide; immunoblot

**Q.** For Skp1 (from UniProt P63208 1-163), which binding is on record?
**A.** Its binding is “binds”.
